The values that follow are results of earlier work, collected in patent US12146871B2, “Method and device for physicochemical characterization of materials” (THE SOLUBILITY COMPANY OY, priority 2016, dated 2024).

The conditions of this series: qualitative descriptor, commonly presented; cited from earlier work.

SMILES strings stand for the structures.

In the case of `COc1ccc2c(c1)c(CC(=O)O)c(C)n2C(=O)c1ccc(Cl)cc1` [indomethacin], the water solubility entry is recorded as “practically insoluble”.
